The supplement of paper PMC6821926, “Diaminoquinazoline MMV675968 from Pathogen Box inhibits Acinetobacter baumannii growth through targeting of dihydrofolate reductase” (Scientific Reports, 2019)
± gives the uncertainty stated by the source. The list shows a part of the results.

How the values were obtained:
[1] = system: Acinetobacter baumannii Mahidol; assay: percent growth relative to DMSO-treated control; higher = less growth inhibition; conditions: 10 µM; 18 h
[2] = system: Acinetobacter baumannii Naval-81; assay: as above; conditions: 10 µM; 18 h

O=C(N[C@H](Cc1ccccc1)C(=O)Nc1ccccc1N1CCOCC1)c1cccs1
percent growth [1]: 88.7 ± 10% | percent growth [2]: 96.8 ± 4.2%

CC(C(=O)N1CCCC1)N1CCN(S(=O)(=O)c2ccc(C(C)(C)C)cc2)CC1 (configuration not stated)
percent growth [1]: 77 ± 34% | percent growth [2]: 96.2 ± 3%

CC1CS(=O)(=O)CCN1/N=C/c1ccc([N+](=O)[O-])o1 (configuration not stated)
percent growth [1]: 94.6 ± 7.8% | percent growth [2]: 100 ± 22%

O=C(Nc1ccc(C(F)(F)F)c(C(F)(F)F)c1)c1cc(Cl)ccc1O
percent growth [1]: 47.2 ± 36% | percent growth [2]: 87.3 ± 19%

CC[C@H](CO)NCCN[C@H](CC)CO
percent growth [1]: 81 ± 31% | percent growth [2]: 107 ± 45%

CN1CCC(NCc2cccc(-c3ccc(S(=O)(=O)NCc4ccccc4)cc3)c2)CC1
percent growth [1]: 92.8 ± 3.9% | percent growth [2]: 89.7 ± 4.8%

CC(C)(C)CN1C(=O)C(c2ccccc2)(c2ccccc2)N=C1N
percent growth [1]: 87.3 ± 2.2% | percent growth [2]: 92.3 ± 14%

CNc1cc(C)nc(C2CN(C(=O)c3n[nH]c4ccccc34)CCO2)c1 (configuration not stated)
percent growth [1]: 97.4 ± 21% | percent growth [2]: 98.4 ± 6.5%

CN1CCC(c2cc(-c3ccncc3)c(-c3ccc(F)cc3)[nH]2)CC1
percent growth [1]: 84.2 ± 23% | percent growth [2]: 91 ± 12%

CCCc1ccc(S(=O)(=O)Nc2ccc(CN3CCN(CC4CC4)CC3)cc2)cc1
percent growth [1]: 90.9 ± 5.5% | percent growth [2]: 96.6 ± 3.7%

O=C(Nc1nc(-c2ccccn2)cs1)C1CC1c1ccccc1F (configuration not stated)
percent growth [1]: 72.8 ± 28% | percent growth [2]: 89.36 ± 0.4%

Nc1ncnc2[nH]nc(Cc3cccc4ccccc34)c12
percent growth [1]: 90.6 ± 9% | percent growth [2]: 92.9 ± 16%

c1ccc(Oc2ccc(-c3cc(CN4CCOCC4)[nH]n3)cc2)cc1
percent growth [1]: 98.1 ± 7.8% | percent growth [2]: 92.1 ± 28%

Clc1ccc(CN2CCN(C3=NCCN3)CC2)cc1Cl
percent growth [1]: 89 ± 7.9% | percent growth [2]: 101 ± 20%

CC1(COc2ccc(N3CCC(Oc4ccc(OC(F)(F)F)cc4)CC3)cc2)Cn2cc([N+](=O)[O-])nc2O1 (configuration not stated)
percent growth [1]: 69 ± 41% | percent growth [2]: 89.8 ± 37%

Nc1nccc2ccc(-c3ccc4nccn4c3)cc12
percent growth [1]: 83.5 ± 4.7% | percent growth [2]: 97.3 ± 12%

COc1ccc2nc(C)cc(OCC(=O)Nc3ccccc3OC)c2c1
percent growth [1]: 84.6 ± 20% | percent growth [2]: 102 ± 11%

Cc1ccc(NC(=O)c2nc[nH]c2C(=O)Nc2nc3ccccc3[nH]2)c(C)c1
percent growth [1]: 69.8 ± 22% | percent growth [2]: 75.1 ± 5.9%

COc1ccc(C2=NCCN2)cc1-c1cn(-c2cccc(C3=NCCN3)c2)nn1
percent growth [1]: 76.8 ± 29% | percent growth [2]: 96 ± 4.9%

CC1CC1C(=O)NC1CCN(CC2(c3ccccc3)CCCCC2)CC1 (configuration not stated)
percent growth [1]: 81.8 ± 24% | percent growth [2]: 105 ± 43%

Clc1cccc(CO[C@H]2CCc3ccccc3[C@@H]2n2ccnn2)c1
percent growth [1]: 92.6 ± 12% | percent growth [2]: 87.6 ± 6.4%

COc1ccc(Nc2ccccc2NC(=O)c2ccc(O)nc2)cc1
percent growth [1]: 101 ± 13% | percent growth [2]: 87.4 ± 18%

COc1ccc(C2(C(=O)Nc3ccc(Br)cc3)CCCC2)cc1
percent growth [1]: 92.1 ± 4% | percent growth [2]: 73.9 ± 9%

Cc1cc(Cl)ccc1NC(=O)CCc1ccc(S(=O)(=O)NCC(C)C)cc1
percent growth [1]: 105 ± 11% | percent growth [2]: 103 ± 26%

CC(Oc1ccccc1)C(=O)Nc1nc(-c2ccccn2)cs1 (configuration not stated)
percent growth [1]: 92.7 ± 10% | percent growth [2]: 105 ± 16%

Cc1cccc(NC(=O)c2cc(S(=O)(=O)N(C)c3ccc(F)cc3)ccc2Cl)n1
percent growth [1]: 98.9 ± 16% | percent growth [2]: 118 ± 38%

Cc1ncc(-c2ccnc(Nc3ccc(S(C)(=O)=O)cc3)n2)n1C(C)C
percent growth [1]: 100 ± 43% | percent growth [2]: 80.5 ± 12%

CCC(Sc1nc2ccccc2o1)C(=O)Nc1nnc(C)s1 (configuration not stated)
percent growth [1]: 98.2 ± 3.7% | percent growth [2]: 85.8 ± 20%

COc1cc(NC(=O)Cc2nn(C)c(=O)c3ccccc23)ccc1Cl
percent growth [1]: 96.6 ± 11% | percent growth [2]: 95.2 ± 21%

Cc1cnc(N2CCN[C@@H](Cc3ccccc3)C2)nc1Oc1ccc(-n2ccnc2)cc1
percent growth [1]: 95.5 ± 5.1% | percent growth [2]: 81.2 ± 6.6%

CCC(Sc1nc2ccccc2o1)C(=O)Nc1nccs1 (configuration not stated)
percent growth [1]: 102 ± 11% | percent growth [2]: 70.7 ± 20%

CN1CCCC1CCO[C@](C)(c1ccccc1)c1ccc(Cl)cc1 (some centres not stated)
percent growth [1]: 103 ± 16% | percent growth [2]: 53.1 ± 50%

N=C(N)Nc1ccc(-c2ccc(-c3ccc(NC(=N)N)cc3Cl)o2)c(Cl)c1
percent growth [1]: 52.1 ± 24% | percent growth [2]: 54.6 ± 37%

Cc1ccc2nc(Cl)c(CNCc3cccs3)cc2c1
percent growth [1]: 80.9 ± 30% | percent growth [2]: 79.9 ± 9.3%

CC(C)C(C(=O)Nc1ccc(S(=O)(=O)N(C)C)cc1)c1ccc(Cl)cc1 (configuration not stated)
percent growth [1]: 105 ± 23% | percent growth [2]: 71.2 ± 34%

CS(=O)(=O)Cc1nc2ccccc2oc1=O
percent growth [1]: 53.8 ± 29% | percent growth [2]: 84 ± 6%

Cn1ncc2c(N3CCOCC3)nc(NCCc3c[nH]c4ccccc34)nc21
percent growth [1]: 83.1 ± 32% | percent growth [2]: 82.6 ± 36%

COc1ccc(-c2cc(NC(=O)c3ccc(F)cc3Cl)ccc2OC)cc1
percent growth [1]: 108 ± 12% | percent growth [2]: 73.2 ± 9%

O=C(CCC1CCCCC1)Nc1cccc(-c2nnc(-c3ccco3)o2)c1
percent growth [1]: 102 ± 28% | percent growth [2]: 92.8 ± 9.7%

COC(=O)c1c(NC(=O)c2cc3ccccc3oc2=O)sc2c1CCN(Cc1ccccc1)C2
percent growth [1]: 75.7 ± 40% | percent growth [2]: 86.2 ± 8.1%

COc1ccc(N(CCc2cccc(C)n2)C(C)=O)cc1
percent growth [1]: 92.5 ± 8.5% | percent growth [2]: 98 ± 5.8%

O=C(OCc1ccccc1)N1CCC(c2cc(-c3ccncc3)c(-c3ccc(F)cc3)[nH]2)CC1
percent growth [1]: 81.6 ± 6.3% | percent growth [2]: 91.3 ± 1%

CCOc1ccc2cc(-c3nn(C(C)(C)C)c(N)c3C(N)=O)cnc2c1
percent growth [1]: 78.9 ± 51% | percent growth [2]: 85.7 ± 29%

CCOc1ccccc1C(=O)Nc1cccc(-c2nc3ncccn3c2C)c1
percent growth [1]: 93.5 ± 3.8% | percent growth [2]: 97.7 ± 13%

Cc1ccc2[nH]c(C3CCCNC3)c(-c3ccncc3)c2c1 (configuration not stated)
percent growth [1]: 106 ± 17% | percent growth [2]: 102 ± 19%

Cc1cc(Cl)c(S(=O)(=O)N2CCCC2)cc1OCC(=O)NC1CCCCC1
percent growth [1]: 92.4 ± 7.5% | percent growth [2]: 89.4 ± 4.8%

CN1CCN(c2nccc3nc(-c4ccc(F)c(F)c4)[nH]c23)CC1
percent growth [1]: 88.3 ± 9.4% | percent growth [2]: 93.8 ± 13%

CCCCc1ccc(NC(=O)Nc2ccc(O[C@H]3CCCC[C@@H]3N(C)c3ccccc3)c(F)c2)cc1
percent growth [1]: 71.1 ± 38% | percent growth [2]: 89.3 ± 7%

O=C(NCCN1CCCC1)c1cc(NCCCCN2CCC(F)(F)CC2)nc2ccc(Cl)cc12
percent growth [1]: 97.2 ± 7% | percent growth [2]: 85.1 ± 9.9%

C[C@H](C(N)=O)N1CCCC[C@H]1c1ccc(OCc2cccc(F)c2)cc1
percent growth [1]: 87.3 ± 6.7% | percent growth [2]: 86.5 ± 6.2%

CC1(C)Cc2c(c(N3CCOCC3)nc3snc(Br)c23)CO1
percent growth [1]: 97.3 ± 6.7% | percent growth [2]: 83.7 ± 16%

COc1cc(C(F)(F)F)nc2ccc(C)c(N)c12
percent growth [1]: 101 ± 3.4% | percent growth [2]: 60.8 ± 48%

CN(C)CCNC(=O)N1CCCN(c2ncnc3cc(-c4ccccc4)sc23)CC1
percent growth [1]: 87.1 ± 5.7% | percent growth [2]: 87.3 ± 10%

Clc1cccc(C(c2ccc(CN3CCNCC3)cc2)n2ccnc2)c1 (configuration not stated)
percent growth [1]: 86.1 ± 9.4% | percent growth [2]: 87.9 ± 10%

FC(F)(F)c1nnc2ccc(Cl)nn12
percent growth [1]: 55.8 ± 51% | percent growth [2]: 85.5 ± 18%

CCOc1ccc(-c2nc(NC(=O)CS(=O)(=O)c3ccccc3)sc2C)cc1
percent growth [1]: 70.5 ± 24% | percent growth [2]: 85.8 ± 12%

O=C(Nc1nc(-c2ccccn2)cs1)c1cncn1-c1ccccc1
percent growth [1]: 113 ± 15% | percent growth [2]: 84.2 ± 19%

CC(C)(C)C(=O)N(CCCCCCN1C[C@H](O)[C@@H](O)[C@H](O)[C@H]1CO)C1CCCCCC1
percent growth [1]: 103 ± 4.9% | percent growth [2]: 84.4 ± 31%

O=C(Nc1nnc(-c2ccc(Cl)cc2)o1)c1cccc(C(F)(F)F)c1
percent growth [1]: 62.9 ± 42% | percent growth [2]: 57.6 ± 23%

C[C@H](c1ccc2c(c1)CCCC2)N(C)c1ncc2c(N)nc(N)nc2n1
percent growth [1]: 85.6 ± 5.5% | percent growth [2]: 101 ± 12%

COc1cc(OC)cc(C(=O)NCC2Cc3cc(Cl)cc(-c4ccncc4)c3O2)c1 (configuration not stated)
percent growth [1]: 89.7 ± 6.3% | percent growth [2]: 94.2 ± 19%

C[C@H]1c2cccc(O)c2C(=O)C2=C(O)[C@]3(O)C(=O)C(C(N)=O)=C(O)[C@@H](N(C)C)[C@@H]3[C@@H](O)[C@@H]21
percent growth [1]: 0.00386 ± 0.4% | percent growth [2]: 0%

COc1ccc(Oc2ccc([C@@H](C)N(C)c3ncc4c(N)nc(N)nc4n3)cc2)cc1
percent growth [1]: 95.3 ± 4.8% | percent growth [2]: 104 ± 12%

O=C(C1CCCCC1)N1CC(=O)N2CCc3ccccc3C2C1 (configuration not stated)
percent growth [1]: 59.7 ± 29% | percent growth [2]: 114 ± 46%

Cc1cc(OCC(=O)NCc2ccccc2)c2cc(Br)ccc2n1
percent growth [1]: 95.1 ± 13% | percent growth [2]: 104 ± 15%

COc1cccc(-n2nnnc2S(=O)(=O)Cc2ccccc2)c1
percent growth [1]: 77.6 ± 27% | percent growth [2]: 88.3 ± 15%
